Test results published in the supplement of paper PMC10849652.
Some of the results follow.

Amino acid sequences for entries named in this document (tags omitted). A change or cut given only in a name is not applied to a line headed by its entry.
UniProt Q53S33: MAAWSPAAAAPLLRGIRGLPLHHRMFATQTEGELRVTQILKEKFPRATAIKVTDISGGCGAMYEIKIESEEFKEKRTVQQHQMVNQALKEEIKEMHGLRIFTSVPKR
UniProt Q6W2J9: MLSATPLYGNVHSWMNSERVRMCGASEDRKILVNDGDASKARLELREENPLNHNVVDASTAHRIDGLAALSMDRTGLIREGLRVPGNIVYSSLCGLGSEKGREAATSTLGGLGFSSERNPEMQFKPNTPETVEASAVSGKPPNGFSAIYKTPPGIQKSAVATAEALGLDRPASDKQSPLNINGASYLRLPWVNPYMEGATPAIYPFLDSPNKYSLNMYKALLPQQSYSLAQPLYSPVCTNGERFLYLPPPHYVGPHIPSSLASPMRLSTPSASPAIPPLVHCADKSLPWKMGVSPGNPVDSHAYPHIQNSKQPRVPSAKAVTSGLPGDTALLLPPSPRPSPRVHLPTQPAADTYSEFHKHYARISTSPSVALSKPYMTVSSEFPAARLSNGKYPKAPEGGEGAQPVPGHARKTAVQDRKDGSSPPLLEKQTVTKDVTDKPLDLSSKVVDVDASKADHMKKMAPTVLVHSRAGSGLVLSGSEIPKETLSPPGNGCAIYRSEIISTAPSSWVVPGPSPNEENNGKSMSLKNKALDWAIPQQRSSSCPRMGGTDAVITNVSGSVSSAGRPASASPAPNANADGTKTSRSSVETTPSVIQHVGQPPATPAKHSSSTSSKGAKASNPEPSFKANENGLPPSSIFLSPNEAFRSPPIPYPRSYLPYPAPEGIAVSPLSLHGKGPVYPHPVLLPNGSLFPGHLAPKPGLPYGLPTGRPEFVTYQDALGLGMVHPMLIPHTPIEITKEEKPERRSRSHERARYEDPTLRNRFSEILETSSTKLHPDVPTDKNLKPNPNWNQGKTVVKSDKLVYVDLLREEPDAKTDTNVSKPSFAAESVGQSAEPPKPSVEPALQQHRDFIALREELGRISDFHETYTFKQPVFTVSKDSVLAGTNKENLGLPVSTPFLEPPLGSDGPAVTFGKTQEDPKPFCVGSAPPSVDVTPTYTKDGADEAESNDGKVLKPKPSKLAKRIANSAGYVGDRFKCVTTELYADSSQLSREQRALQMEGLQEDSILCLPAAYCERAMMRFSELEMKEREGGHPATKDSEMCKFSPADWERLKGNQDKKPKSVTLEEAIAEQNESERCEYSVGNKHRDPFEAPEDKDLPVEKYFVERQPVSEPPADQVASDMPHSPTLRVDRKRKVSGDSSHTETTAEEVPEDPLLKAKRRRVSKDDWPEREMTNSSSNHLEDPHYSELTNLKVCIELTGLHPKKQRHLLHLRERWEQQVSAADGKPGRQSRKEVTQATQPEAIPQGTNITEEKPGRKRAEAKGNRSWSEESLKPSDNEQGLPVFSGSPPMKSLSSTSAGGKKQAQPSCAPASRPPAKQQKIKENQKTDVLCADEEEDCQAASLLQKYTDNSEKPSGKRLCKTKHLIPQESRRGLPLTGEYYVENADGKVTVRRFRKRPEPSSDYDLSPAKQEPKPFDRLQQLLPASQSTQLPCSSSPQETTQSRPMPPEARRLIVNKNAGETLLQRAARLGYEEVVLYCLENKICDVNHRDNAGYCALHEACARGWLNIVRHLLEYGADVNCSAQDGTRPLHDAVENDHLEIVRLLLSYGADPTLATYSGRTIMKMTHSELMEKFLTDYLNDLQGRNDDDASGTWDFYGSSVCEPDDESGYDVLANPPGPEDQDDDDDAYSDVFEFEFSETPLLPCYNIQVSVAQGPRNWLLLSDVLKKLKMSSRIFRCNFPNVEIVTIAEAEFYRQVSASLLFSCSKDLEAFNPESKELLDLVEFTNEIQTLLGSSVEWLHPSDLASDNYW
UniProt Q8NFC6: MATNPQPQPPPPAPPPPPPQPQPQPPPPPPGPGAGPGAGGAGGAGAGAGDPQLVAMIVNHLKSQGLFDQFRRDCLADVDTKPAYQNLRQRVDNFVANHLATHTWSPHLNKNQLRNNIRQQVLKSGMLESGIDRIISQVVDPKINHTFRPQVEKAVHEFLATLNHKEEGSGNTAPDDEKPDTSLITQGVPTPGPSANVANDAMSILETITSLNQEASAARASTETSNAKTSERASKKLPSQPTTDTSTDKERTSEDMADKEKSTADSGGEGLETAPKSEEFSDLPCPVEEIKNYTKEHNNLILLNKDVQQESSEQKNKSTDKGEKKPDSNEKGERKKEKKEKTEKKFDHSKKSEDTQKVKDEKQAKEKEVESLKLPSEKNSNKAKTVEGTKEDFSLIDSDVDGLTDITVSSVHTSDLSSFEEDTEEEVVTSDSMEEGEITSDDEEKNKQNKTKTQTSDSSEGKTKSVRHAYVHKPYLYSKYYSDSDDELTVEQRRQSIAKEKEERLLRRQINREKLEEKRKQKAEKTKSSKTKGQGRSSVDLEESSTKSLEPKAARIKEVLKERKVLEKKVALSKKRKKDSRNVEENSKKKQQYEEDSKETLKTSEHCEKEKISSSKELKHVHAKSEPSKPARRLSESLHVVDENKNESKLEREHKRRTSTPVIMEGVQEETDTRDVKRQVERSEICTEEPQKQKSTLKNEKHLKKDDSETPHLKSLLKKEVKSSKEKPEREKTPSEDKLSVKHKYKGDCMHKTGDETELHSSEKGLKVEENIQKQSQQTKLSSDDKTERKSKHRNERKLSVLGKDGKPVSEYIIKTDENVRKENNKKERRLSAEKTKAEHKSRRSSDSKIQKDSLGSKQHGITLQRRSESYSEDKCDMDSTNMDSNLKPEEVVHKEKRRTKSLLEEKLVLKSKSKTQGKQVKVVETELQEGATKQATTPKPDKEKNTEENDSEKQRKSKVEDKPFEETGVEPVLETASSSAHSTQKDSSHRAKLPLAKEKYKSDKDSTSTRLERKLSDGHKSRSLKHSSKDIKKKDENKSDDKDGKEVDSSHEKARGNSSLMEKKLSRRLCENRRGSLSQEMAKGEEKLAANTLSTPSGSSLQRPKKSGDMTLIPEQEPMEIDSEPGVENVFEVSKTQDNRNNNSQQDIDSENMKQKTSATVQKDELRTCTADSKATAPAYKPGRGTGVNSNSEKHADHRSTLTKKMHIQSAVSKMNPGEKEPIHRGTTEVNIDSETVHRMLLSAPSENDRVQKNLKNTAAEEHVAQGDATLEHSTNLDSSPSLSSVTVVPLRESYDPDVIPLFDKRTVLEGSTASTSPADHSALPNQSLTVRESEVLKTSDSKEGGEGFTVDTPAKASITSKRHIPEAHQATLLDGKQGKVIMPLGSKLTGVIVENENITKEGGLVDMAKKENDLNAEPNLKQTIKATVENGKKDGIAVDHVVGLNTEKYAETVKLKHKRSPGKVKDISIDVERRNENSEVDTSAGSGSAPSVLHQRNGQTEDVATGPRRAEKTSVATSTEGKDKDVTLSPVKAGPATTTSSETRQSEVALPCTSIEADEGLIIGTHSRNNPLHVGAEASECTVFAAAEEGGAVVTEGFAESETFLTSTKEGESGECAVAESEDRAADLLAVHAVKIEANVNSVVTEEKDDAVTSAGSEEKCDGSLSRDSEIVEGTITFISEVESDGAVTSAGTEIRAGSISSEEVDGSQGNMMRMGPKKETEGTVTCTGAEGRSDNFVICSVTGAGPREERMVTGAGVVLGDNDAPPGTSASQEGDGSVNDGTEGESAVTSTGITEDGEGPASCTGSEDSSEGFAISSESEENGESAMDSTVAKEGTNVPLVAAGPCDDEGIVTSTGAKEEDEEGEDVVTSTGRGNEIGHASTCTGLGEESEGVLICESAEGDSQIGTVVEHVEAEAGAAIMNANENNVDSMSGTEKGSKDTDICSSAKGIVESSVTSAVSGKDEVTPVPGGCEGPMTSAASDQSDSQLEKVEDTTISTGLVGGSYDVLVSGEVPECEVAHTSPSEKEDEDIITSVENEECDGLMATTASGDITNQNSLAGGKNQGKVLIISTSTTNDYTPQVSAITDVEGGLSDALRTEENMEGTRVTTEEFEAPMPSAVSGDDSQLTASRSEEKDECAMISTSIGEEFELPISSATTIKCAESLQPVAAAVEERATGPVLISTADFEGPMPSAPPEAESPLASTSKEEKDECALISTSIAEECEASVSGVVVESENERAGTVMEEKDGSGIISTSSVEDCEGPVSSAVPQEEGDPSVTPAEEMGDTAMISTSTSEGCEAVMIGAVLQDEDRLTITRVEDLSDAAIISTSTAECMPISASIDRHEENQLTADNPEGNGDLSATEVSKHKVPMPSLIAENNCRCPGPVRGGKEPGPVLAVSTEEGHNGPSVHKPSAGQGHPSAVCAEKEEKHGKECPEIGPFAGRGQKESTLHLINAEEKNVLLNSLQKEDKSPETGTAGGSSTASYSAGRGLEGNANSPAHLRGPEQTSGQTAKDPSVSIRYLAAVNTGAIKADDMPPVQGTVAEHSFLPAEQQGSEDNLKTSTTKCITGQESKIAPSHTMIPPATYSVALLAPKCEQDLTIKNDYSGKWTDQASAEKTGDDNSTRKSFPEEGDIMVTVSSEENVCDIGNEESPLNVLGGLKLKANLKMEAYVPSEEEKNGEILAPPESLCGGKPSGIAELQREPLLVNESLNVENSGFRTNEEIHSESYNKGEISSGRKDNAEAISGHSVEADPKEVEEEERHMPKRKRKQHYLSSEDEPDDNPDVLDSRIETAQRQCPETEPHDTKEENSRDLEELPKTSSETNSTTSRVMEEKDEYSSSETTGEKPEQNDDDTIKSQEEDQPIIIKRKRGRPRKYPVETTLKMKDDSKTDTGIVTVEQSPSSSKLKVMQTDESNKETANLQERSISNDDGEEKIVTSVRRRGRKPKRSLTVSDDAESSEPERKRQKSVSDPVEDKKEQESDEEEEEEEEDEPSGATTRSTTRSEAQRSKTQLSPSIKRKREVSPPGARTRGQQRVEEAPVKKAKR
UniProt Q12981: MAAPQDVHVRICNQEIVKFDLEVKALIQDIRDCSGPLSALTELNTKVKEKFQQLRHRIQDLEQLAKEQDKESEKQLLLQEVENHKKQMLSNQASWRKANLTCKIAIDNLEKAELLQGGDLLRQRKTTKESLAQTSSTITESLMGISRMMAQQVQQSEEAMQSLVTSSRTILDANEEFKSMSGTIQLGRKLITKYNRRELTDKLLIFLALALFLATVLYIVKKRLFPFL
UniProt Q07817, whole entry, looked up: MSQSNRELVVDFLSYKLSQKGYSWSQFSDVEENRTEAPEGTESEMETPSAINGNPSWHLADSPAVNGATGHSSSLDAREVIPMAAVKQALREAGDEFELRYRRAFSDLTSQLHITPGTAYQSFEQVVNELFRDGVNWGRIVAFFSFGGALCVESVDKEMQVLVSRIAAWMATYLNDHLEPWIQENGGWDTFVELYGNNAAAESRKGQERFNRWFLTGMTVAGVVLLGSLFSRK
UniProt Q15059, whole entry, looked up: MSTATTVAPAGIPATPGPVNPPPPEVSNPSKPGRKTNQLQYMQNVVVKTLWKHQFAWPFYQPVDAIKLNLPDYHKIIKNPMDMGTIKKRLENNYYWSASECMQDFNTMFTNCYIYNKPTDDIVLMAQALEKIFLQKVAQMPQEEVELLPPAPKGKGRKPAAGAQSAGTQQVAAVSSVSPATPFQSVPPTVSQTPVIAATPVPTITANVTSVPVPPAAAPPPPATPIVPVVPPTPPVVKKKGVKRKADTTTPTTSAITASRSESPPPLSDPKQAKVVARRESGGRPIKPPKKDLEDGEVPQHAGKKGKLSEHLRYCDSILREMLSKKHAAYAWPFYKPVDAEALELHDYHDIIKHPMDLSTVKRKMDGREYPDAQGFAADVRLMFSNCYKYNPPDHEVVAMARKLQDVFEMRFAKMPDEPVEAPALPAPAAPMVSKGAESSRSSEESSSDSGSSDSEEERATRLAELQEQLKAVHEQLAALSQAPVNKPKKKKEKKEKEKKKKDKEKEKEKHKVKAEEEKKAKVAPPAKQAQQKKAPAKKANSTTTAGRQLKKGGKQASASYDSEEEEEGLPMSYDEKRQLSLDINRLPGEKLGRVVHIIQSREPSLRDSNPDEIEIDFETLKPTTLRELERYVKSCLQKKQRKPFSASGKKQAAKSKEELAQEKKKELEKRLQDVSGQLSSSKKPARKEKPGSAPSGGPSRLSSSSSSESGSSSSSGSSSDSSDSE
UniProt Q8NCR0: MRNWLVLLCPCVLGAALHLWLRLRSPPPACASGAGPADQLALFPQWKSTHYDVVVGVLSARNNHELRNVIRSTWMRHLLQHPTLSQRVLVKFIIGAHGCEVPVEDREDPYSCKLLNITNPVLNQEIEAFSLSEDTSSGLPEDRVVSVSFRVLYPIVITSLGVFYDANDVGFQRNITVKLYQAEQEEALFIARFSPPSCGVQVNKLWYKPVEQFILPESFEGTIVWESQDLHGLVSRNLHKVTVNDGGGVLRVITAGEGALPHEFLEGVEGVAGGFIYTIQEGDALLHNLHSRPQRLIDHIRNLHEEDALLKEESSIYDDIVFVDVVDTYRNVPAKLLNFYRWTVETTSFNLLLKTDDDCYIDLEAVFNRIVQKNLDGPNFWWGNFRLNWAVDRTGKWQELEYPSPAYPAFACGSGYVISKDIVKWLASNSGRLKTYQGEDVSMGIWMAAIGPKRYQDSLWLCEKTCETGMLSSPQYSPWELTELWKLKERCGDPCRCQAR

How the values were obtained:
Experiment in all cases: log2 fold change, soluble protein after heating vs DMSO (PISA); higher = thermal stabilisation; K562 cells, 10 uM, 30 min; active = over 0.2 and 3.5 SD of the protein, either way, in both replicates (recomputed)
[1] = compound: CS(=O)(=O)c1ccc(-c2cnc(N)c(C(=O)Nc3ccccc3)n2)cc1
Outline: (§1)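 Values are thermal stability changes relative to control samples and are taken from duplicates. They are stated as log2 fold changes. Before quantification by TMTpro 16plex LC-MS/MS with equalised channel sums, K562 cells at 2×10^6 cells/mL were treated with 10 μM compound for 30 min, heated in aliquots for 3 min across 48°C-58°C, pooled, extracted in PBS with 0.5% NP-40 at 4°C, and centrifuged at 21,000xg for 90 min to give the soluble supernatant.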

crizotinib = compound: C[C@@H](Oc1cc(-c2cnn(C3CCNCC3)c2)cnc1N)c1c(Cl)ccc(F)c1Cl [crizotinib]
Outline: as §1

[2] = compound: C[C@@H]1COCCN1C2=NC(=NC(=C2)C3(CC3)S(=O)(=O)C)C4=C5C=CNC5=CC=C4
Outline: as §1

[3] = compound: C[C@H](C1=CC=C(C=C1)C(=O)NC2=C3C=CNC3=NC=C2)N
Outline: as §1

duvelisib = compound: C[C@H](Nc1ncnc2nc[nH]c12)c1cc2cccc(Cl)c2c(=O)n1-c1ccccc1 [duvelisib]
Outline: as §1

[4] = compound: Cc1cc(SCc2sc(-c3ccc(C(F)(F)F)cc3)nc2C)ccc1OCC(=O)O
Outline: as §1

doramapimod = compound: Cc1ccc(-n2nc(C(C)(C)C)cc2NC(=O)Nc2ccc(OCCN3CCOCC3)c3ccccc23)cc1 [doramapimod]
Outline: as §1

gandotinib = compound: Cc1cc(Nc2cc(CN3CCOCC3)c3nc(C)c(Cc4ccc(Cl)cc4F)n3n2)n[nH]1 [gandotinib]
Outline: as §1

tozasertib = compound: Cc1cc(Nc2cc(N3CCN(C)CC3)nc(Sc3ccc(NC(=O)C4CC4)cc3)n2)n[nH]1 [tozasertib]
Outline: as §1

ispinesib = compound: Cc1ccc(C(=O)N(CCCN)[C@@H](c2nc3cc(Cl)ccc3c(=O)n2Cc2ccccc2)C(C)C)cc1 [ispinesib]
Outline: as §1

| Target | log2 fold change [1] | log2 fold change (crizotinib) | log2 fold change [2] | log2 fold change [3] | log2 fold change (duvelisib) | log2 fold change [4] | log2 fold change (doramapimod) | log2 fold change (gandotinib) | log2 fold change (tozasertib) | log2 fold change (ispinesib) |
| --- | --- | --- | --- | --- | --- | --- | --- | --- | --- | --- |
| B3GNT5 (UniProt Q9BYG0) | inactive: 0.031 | inactive: -0.029 | inactive: 0.133 | inactive: -0.28 | inactive: -0.048 | inactive: -0.115 | inactive: -0.038 |  |  |  |
| ATXN2L (UniProt Q8WWM7) | inactive: -0.039 | inactive: -0.084 | inactive: -0.121 | inactive: -0.003 | inactive: -0.035 | inactive: 0.009 | inactive: 0.025 | inactive: -0.037 | inactive: -0.018 | inactive: -0.053 |
| BOLA3 (UniProt Q53S33) | inactive: 0.059 | inactive: 0.066 | inactive: 0.047 | inactive: -0.054 | inactive: 0.04 | inactive: -0.022 | inactive: -0.022 | inactive: 0.029 | inactive: -0.023 | inactive: 0.007 |
| BPNT1 (UniProt O95861) | inactive: 0.062 | inactive: 0.078 | inactive: 0.007 | inactive: -0.067 | inactive: -0.014 | inactive: -0.008 | inactive: -0.022 | inactive: 0.039 | inactive: 0.016 | inactive: 0.116 |
| BCOR (UniProt Q6W2J9) | inactive: 0.324 | inactive: 0.063 | inactive: 0.012 | inactive: 0.384 | inactive: 0.223 | inactive: -0.045 | inactive: -0.076 |  | inactive: -0.137 |  |
| BOD1L1 (UniProt Q8NFC6) | inactive: -0.005 | inactive: 0 | inactive: -0.07 | inactive: 0.028 | inactive: -0.02 | inactive: -0.034 | inactive: 0.061 | inactive: 0.046 | inactive: -0.009 | inactive: -0.041 |
| BECN1 (UniProt Q14457) | inactive: 0.141 | inactive: -0.126 | inactive: 0.043 | inactive: 0.093 | active: 0.283 | inactive: -0.066 | inactive: -0.004 | inactive: 0.138 |  | inactive: -0.019 |
| BLOC1S1 (UniProt P78537) | inactive: -0.104 | inactive: 0.032 | inactive: 0.06 | inactive: -0.034 | inactive: 0.119 | inactive: -0.03 | inactive: 0.055 | inactive: -0.149 | inactive: -0.013 | inactive: 0.109 |
| B3GNTL1 (UniProt Q67FW5) | inactive: 0.021 | inactive: 0.024 | inactive: 0.262 | inactive: 0.01 | inactive: 0.057 | inactive: -0.036 | inactive: 0.078 | inactive: -0.145 | inactive: -0.129 | inactive: -0.118 |
| BLOC1S6 (UniProt Q9UL45) | inactive: 0.016 | inactive: 0.032 | inactive: 0.061 | inactive: -0.048 | inactive: 0.02 | inactive: -0.051 | inactive: 0.035 |  | inactive: -0.002 | inactive: 0.022 |
| BAG4 (UniProt O95429) | inactive: 0.056 | inactive: -0.01 | inactive: 0.103 | inactive: -0.105 | inactive: 0.058 | inactive: 0.027 | inactive: 0 | inactive: -0.056 | inactive: 0 | inactive: -0.007 |
| ATXN2 (UniProt Q99700) | inactive: 0.008 | inactive: -0.006 | inactive: -0.06 | inactive: 0.029 | inactive: -0.026 | inactive: -0.046 | inactive: 0.009 | inactive: -0.013 | inactive: -0.053 | inactive: -0.053 |
| BIRC5 (UniProt O15392) | inactive: 0.064 | inactive: 0.101 | inactive: -0.047 | inactive: -0.071 | inactive: 0.05 | inactive: -0.087 | inactive: 0.034 |  | inactive: -0.082 | inactive: -0.019 |
| ATRN (UniProt O75882) | inactive: -0.049 | inactive: 0.01 | inactive: 0.116 | inactive: 0.087 |  | inactive: 0.071 | inactive: -0.238 | inactive: -0.002 |  |  |
| BNIP1 (UniProt Q12981) | inactive: 0 | inactive: -0.036 | inactive: 0.042 | inactive: -0.027 | inactive: 0.056 | inactive: 0.016 | inactive: -0.02 | inactive: -0.012 | inactive: -0.008 | inactive: -0.114 |
| BCL10 (UniProt O95999) | inactive: -0.026 | inactive: 0.014 | inactive: 0.024 | inactive: 0.13 | inactive: -0.014 | inactive: -0.006 | inactive: -0.038 | inactive: -0.084 | inactive: 0.085 | inactive: -0.074 |

A section of the results above:

| Target | log2 fold change [1] | log2 fold change (crizotinib) | log2 fold change [2] | log2 fold change [3] | log2 fold change (duvelisib) | log2 fold change [4] | log2 fold change (doramapimod) | log2 fold change (gandotinib) | log2 fold change (tozasertib) | log2 fold change (ispinesib) |
| --- | --- | --- | --- | --- | --- | --- | --- | --- | --- | --- |
| BLOC1S1 (UniProt P78537) | inactive: -0.104 | inactive: 0.032 | inactive: 0.06 | inactive: -0.034 | inactive: 0.119 | inactive: -0.03 | inactive: 0.055 | inactive: -0.149 | inactive: -0.013 | inactive: 0.109 |
| B3GNTL1 (UniProt Q67FW5) | inactive: 0.021 | inactive: 0.024 | inactive: 0.262 | inactive: 0.01 | inactive: 0.057 | inactive: -0.036 | inactive: 0.078 | inactive: -0.145 | inactive: -0.129 | inactive: -0.118 |
| BLOC1S6 (UniProt Q9UL45) | inactive: 0.016 | inactive: 0.032 | inactive: 0.061 | inactive: -0.048 | inactive: 0.02 | inactive: -0.051 | inactive: 0.035 |  | inactive: -0.002 | inactive: 0.022 |
| BAG4 (UniProt O95429) | inactive: 0.056 | inactive: -0.01 | inactive: 0.103 | inactive: -0.105 | inactive: 0.058 | inactive: 0.027 | inactive: 0 | inactive: -0.056 | inactive: 0 | inactive: -0.007 |
| ATXN2 (UniProt Q99700) | inactive: 0.008 | inactive: -0.006 | inactive: -0.06 | inactive: 0.029 | inactive: -0.026 | inactive: -0.046 | inactive: 0.009 | inactive: -0.013 | inactive: -0.053 | inactive: -0.053 |
| BIRC5 (UniProt O15392) | inactive: 0.064 | inactive: 0.101 | inactive: -0.047 | inactive: -0.071 | inactive: 0.05 | inactive: -0.087 | inactive: 0.034 |  | inactive: -0.082 | inactive: -0.019 |
| ATRN (UniProt O75882) | inactive: -0.049 | inactive: 0.01 | inactive: 0.116 | inactive: 0.087 |  | inactive: 0.071 | inactive: -0.238 | inactive: -0.002 |  |  |
| BNIP1 (UniProt Q12981) | inactive: 0 | inactive: -0.036 | inactive: 0.042 | inactive: -0.027 | inactive: 0.056 | inactive: 0.016 | inactive: -0.02 | inactive: -0.012 | inactive: -0.008 | inactive: -0.114 |
| BCL10 (UniProt O95999) | inactive: -0.026 | inactive: 0.014 | inactive: 0.024 | inactive: 0.13 | inactive: -0.014 | inactive: -0.006 | inactive: -0.038 | inactive: -0.084 | inactive: 0.085 | inactive: -0.074 |

(listing goes on)

| Target | log2 fold change [1] | log2 fold change (crizotinib) | log2 fold change [2] | log2 fold change [3] | log2 fold change (duvelisib) | log2 fold change [4] | log2 fold change (doramapimod) | log2 fold change (gandotinib) | log2 fold change (tozasertib) | log2 fold change (ispinesib) |
| --- | --- | --- | --- | --- | --- | --- | --- | --- | --- | --- |
| BCL2L1 (UniProt Q07817) | inactive: -0.027 | inactive: 0.041 | inactive: 0.014 | inactive: -0.047 | inactive: 0.011 | inactive: 0 | inactive: 0.014 | inactive: 0.043 | inactive: -0.032 | inactive: 0.13 |
| BRD3 (UniProt Q15059) | inactive: 0.117 | inactive: 0.109 |  | inactive: -0.02 |  | inactive: -0.037 | inactive: -0.083 | inactive: -0.081 |  | inactive: -0.03 |
| BID isoform 2 (UniProt P55957) | inactive: 0.047 | inactive: 0.087 | active: 0.409 | inactive: -0.019 |  | inactive: -0.003 | inactive: -0.013 | inactive: -0.012 |  | inactive: 0.022 |
| ATR (UniProt Q13535) | inactive: 0.063 | inactive: -0.021 |  | inactive: 0.022 |  | inactive: 0.026 | inactive: -0.123 | inactive: -0.09 |  | inactive: 0.004 |
| BCCIP isoform 2 (UniProt Q9P287) | inactive: -0.006 | inactive: -0.012 | inactive: 0 | inactive: 0.062 |  | inactive: 0.011 | inactive: -0.008 | inactive: -0.047 |  | inactive: 0.059 |
| ATXN7L3 isoform 2 (UniProt Q14CW9) | inactive: 0.001 | inactive: -0.043 |  |  |  |  | inactive: 0.169 |  |  | inactive: -0.007 |
| BCAP29 isoform 2 (UniProt Q9UHQ4) | inactive: -0.015 | inactive: -0.028 | inactive: 0.061 | inactive: -0.005 |  | inactive: -0.079 | inactive: -0.024 | inactive: 0.037 |  | active: -0.245 |
| BCL7C isoform 2 (UniProt Q8WUZ0) | inactive: -0.079 |  | inactive: 0.189 | inactive: 0.103 |  |  |  |  |  |  |
| BCCIP (UniProt Q9P287) | inactive: -0.015 | inactive: -0.02 | inactive: -0.044 | inactive: 0.074 |  | inactive: 0.037 | inactive: 0.01 | inactive: -0.093 |  | inactive: 0.001 |
| BCL9L (UniProt Q86UU0) | inactive: 0.029 | inactive: 0.085 | inactive: 0.018 | inactive: -0.002 |  | inactive: -0.112 | inactive: 0.006 | inactive: 0.097 |  | inactive: 0.025 |
| BRD2 isoform 2 (UniProt P25440) | inactive: 0.618 | inactive: 0.006 |  | inactive: -0.065 |  | inactive: -0.083 | inactive: 0.064 | inactive: -0.089 |  |  |
| BAD (UniProt Q92934) | inactive: 0.171 | inactive: 0.076 | inactive: 0.076 | inactive: -0.036 |  | inactive: -0.033 | inactive: 0.003 | inactive: 0.018 |  | inactive: 0.025 |
| BCL2L11 (UniProt O43521) | inactive: 0.017 |  | inactive: 0.157 | inactive: -0.045 | inactive: -0.008 | inactive: 0.013 |  | inactive: 0.191 | inactive: -0.134 | inactive: 0.1 |
| B3GALNT2 (UniProt Q8NCR0) | inactive: 0.144 | inactive: -0.022 | inactive: 0.048 |  |  |  | inactive: -0.064 | inactive: 0.071 | inactive: -0.377 | inactive: -0.076 |
| BMP2K (UniProt Q9NSY1) | inactive: 0.136 | active: 0.411 | inactive: 0 | active: 0.402 |  | inactive: -0.051 | inactive: 0.024 | inactive: 0.319 |  | inactive: -0.017 |
| BCAS1 (UniProt O75363) | inactive: -0.079 |  | inactive: -0.087 | inactive: -0.136 | inactive: 0.03 | inactive: -0.032 |  | inactive: 0.042 | inactive: -0.06 | inactive: -0.034 |
